In patent US20150245596A1, “MELANOCORTIN RECEPTOR MUTANT MOUSE AND USES THEREOF” (THE GENERAL HOSPITAL CORPORATION, priority 2012, published 2015):
At least one structure is not confirmed: it was looked up by name or label, or the drawing left a doubt.

How the values were obtained:
[1] = system: redhead-BRaf^V600E melanoma and epidermis, redhead K14-SCF mice; conditions: topical, redhead mouse, reference 19; cited from earlier work
[2] = system: melanocytic markers (Mitf, Dct, Tyrp1 mRNA); test: Quantitative RT-PCR of melanocytic markers in primary cultured tumor cells; type: cell-based, mouse
Description: RNA was harvested from primary cultured tumor cells treated for varying times with forskolin or PLX4720 using the RNeasy Plus mini kit (QIAGEN). mRNA expression of melanocytic markers was determined using intron-spanning mouse-specific primers with Kapa SYBR FAST qPCR master mix (KAPA BIOSYSTEMS). Expression was normalized to 18s rRNA and 0 hour time-points.

[3] = system: redhead-BRaf^V600E melanoma and epidermis, redhead K14-SCF mice; test: Tumor darkening by topical forskolin; type: in vivo, mouse
[4] = primary cell line from redhead melanoma

C=C[C@@]1(C)CC(=O)[C@]2(O)[C@@]3(C)[C@@H](O)CCC(C)(C)[C@@H]3[C@H](O)[C@H](OC(C)=O)[C@@]2(C)O1 [forskolin]
eumelanin synthesis [1]: induces eumelanin synthesis
expression of melanocytic markers ([2]; 20 μM forskolin, mRNA normalized to 18s rRNA and 0 h, n=4): upregulates
expression of the Dct and Tyrp1 pigment genes [2, 4]: dramatic increase
expression of the melanocyte-specific isoform of Mitf (M-Mitf) [2, 4]: upregulated
epidermal pigmentation [3]: induces significant epidermal pigmentation
tumor cell pigmentation ([3]; listed as Forskolin): mild tumor cell pigmentation
